Patent US20250367314 (published 2025)

Assay: general procedure: solution-phase peptide synthesis; DCC; HATU
Conditions: for step yield: late stage modification step

Row | Substance | step yield | conjugation yield (conjugation step)
1 | (9H-fluoren-9-yl)methyl(S)-(2-((2-((1-((2-((4-((((4-nitrophenoxy)carbonyl)oxy)methyl)phenyl)amino)-2-oxoethyl)amino)-1-oxo-3-phenylpropan-2-yl)amino)-2-oxoethyl)amino)-2-oxoethyl)carbamate | 61% yield | 
2 | (9H-fluoren-9-yl)methyl(S)-(2-((2-((1-((2-((4-(hydroxymethyl)phenyl)amino)-2-oxoethyl)amino)-1-oxo-3-phenylpropan-2-yl)amino)-2-oxoethyl)amino)-2-oxoethyl)carbamate | 58% yield | 
3 | (S)-2-(2-(2-aminoacetamido)acetamido)-N-(2-((4-(hydroxymethyl)phenyl)amino)-2-oxoethyl)-3-phenylpropanamide | 95% yield | 
4 | (S)-4-(2-(2-(2-(2-aminoacetamido)acetamido)-3-phenylpropanamido)acetamido)benzyl(2-(3-fluorophenyl)-6-methoxy-4-oxo-1,4-dihydroquinolin-5-yl)ethane-1,2-diylbis(methylcarbamate) | 77% yield | 
5 | (S)-4-(11-benzyl-1-(9H-fluoren-9-yl)-3,6,9,12-tetraoxo-2-oxa-4,7,10,13-tetraazapentadecan-15-amido)benzyl(2-(3-fluorophenyl)-6-methoxy-4-oxo-1,4-dihydroquinolin-5-yl)ethane-1,2-diylbis(methylcarbamate) |  | 36% yield
